Source: ChEMBL document CHEMBL1155799 (Bioorg Med Chem, 2008)

Chains of the proteins cited; added tags and fusions are not shown.
UniProt Q63380, whole entry: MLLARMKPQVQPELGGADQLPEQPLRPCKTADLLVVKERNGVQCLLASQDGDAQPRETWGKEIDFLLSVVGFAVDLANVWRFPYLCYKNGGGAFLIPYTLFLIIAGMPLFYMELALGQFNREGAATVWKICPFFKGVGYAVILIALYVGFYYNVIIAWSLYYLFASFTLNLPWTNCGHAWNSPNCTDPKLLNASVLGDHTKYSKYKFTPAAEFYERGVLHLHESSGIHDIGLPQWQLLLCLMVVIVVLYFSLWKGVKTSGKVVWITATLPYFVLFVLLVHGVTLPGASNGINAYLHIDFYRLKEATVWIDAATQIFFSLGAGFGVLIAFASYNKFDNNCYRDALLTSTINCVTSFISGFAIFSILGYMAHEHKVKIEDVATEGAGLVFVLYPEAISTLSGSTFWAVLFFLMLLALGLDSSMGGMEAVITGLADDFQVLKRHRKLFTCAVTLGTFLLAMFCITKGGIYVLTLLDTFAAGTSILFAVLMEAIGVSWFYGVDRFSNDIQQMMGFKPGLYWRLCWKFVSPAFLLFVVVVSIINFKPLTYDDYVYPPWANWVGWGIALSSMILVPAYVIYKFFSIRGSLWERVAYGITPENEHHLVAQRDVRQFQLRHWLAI

Target: Transporter (Rattus norvegicus, UniProt Q63380)

Structure (SMILES)	Ki
O=C(CCCN1CCC(O)(c2ccc(Cl)cc2)CC1)c1ccc(F)cc1 [HALOPERIDOL]	5.5 µM
Cc1cc2c(s1)Nc1ccccc1N=C2N1CCN(C)CC1 [OLANZAPINE]	2 µM
